Assay results: US10723699B2 (Hyundai Pharm Co., Ltd., priority 2015, dated 2020)
Some of these results come from one statement about several compounds together.

Each compound was assayed on diet-induced obesity (DIO) C57BL/6J mice (assay: OGTT in diet-induced obesity (DIO) mice at the end of 4-week administration). Settings: 10 to 20 mg/kg oral, Table 4.
Assay type: in vivo
Protocol: To simultaneously evaluate both the weight-loss and hypoglycemic effects of the cyclohexene derivative according to the present invention, experiments were carried out, as follows.
Specifically, male C57BL/6J mice (approximately 4 weeks old) in a diet-induced obesity model were fed with a high-fat diet (Lab. Diet Co.) for approximately 12 weeks to induce high-fat diet-induced obesity (DIO). The mice undergoing the high-fat diet were randomly selected, and divided into groups (n=8) for respective administrations.
The weights of the DIO mice were measured twice a week during a period of administration of 4 weeks to record a change in the weights. At the end of the 4-week period of administration, a hypoglycemic effect was evaluated using an oral glucose tolerance test (OGTT), as follows.
Specifically, the compound (+)-(4-(4-((1-(5-ethylpyrimidin-2-yl)piperidin-4-yl)methoxy)phenyl)cyclohex-3-enyl)((R)-2-(hydroxymethyl)pyrrolidin-1-yl)methanone or (−)-(4-(4-((1-(5-ethylpyrimidin-2-yl)piperidin-4-yl)methoxy)phenyl)cyclohex-3-enyl)((R)-2-(hydroxymethyl)pyrrolidin-1-yl)methanone prepared in Example 290 or 291 was orally administered at a dose of 10 to 20 mg/kg. […] A blood glucose level was determined using an Accu-Chek Active Strip (Roche diagnostic Co.). […]
Work on `CCc1cnc(N2CCC(COc3ccc(C4=CCC(C(=O)N5CCC[C@@H]5CO)CC4)cc3)CC2)nc1` (single isomer, unassigned; (+)) [Example 290] yielded a hypoglycemic effect of no less than 16%.
`CCc1cnc(N2CCC(COc3ccc(C4=CCC(C(=O)N5CCC[C@@H]5CO)CC4)cc3)CC2)nc1` (single isomer, unassigned; (-)) [Example 291] gave a hypoglycemic effect of no less than 16%.

The compounds below were run against T1, G protein-coupled receptor 119 (GPR-119) (Mesocricetus auratus, UniProt A0A1U8CD06) (assay: cAMP activity in HIT-T15 cells (cAMP dynamic kit, FRET)). Settings: Table 2.
T1 construct: hamster-derived β-cells containing G protein-coupled receptor 119 (GPR-119), HIT-T15 cells; host or cells: HIT-T15 (hamster pancreatic β-cells)
T1 sequence (A0A1U8CD06 1-334): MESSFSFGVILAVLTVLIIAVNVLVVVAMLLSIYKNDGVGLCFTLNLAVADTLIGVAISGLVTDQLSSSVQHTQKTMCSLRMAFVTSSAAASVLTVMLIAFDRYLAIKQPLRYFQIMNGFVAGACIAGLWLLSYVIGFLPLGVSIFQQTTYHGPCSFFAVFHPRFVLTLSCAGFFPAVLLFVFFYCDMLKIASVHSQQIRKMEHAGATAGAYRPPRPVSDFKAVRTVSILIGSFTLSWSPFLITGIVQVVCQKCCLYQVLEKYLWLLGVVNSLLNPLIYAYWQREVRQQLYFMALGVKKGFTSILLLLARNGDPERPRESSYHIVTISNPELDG
Assay type: cell-based, hamster
Protocol: To check whether the cyclohexene derivatives according to the present invention activate cyclic adenosine monophosphate (cAMP), experiments were carried out, as follows.
The HIT-T15 cells were plated on a 96-well plate at 60,000 cells per well. On the next day of plating, the cells were treated with a varying concentration of each of the example compounds according to the present invention, and incubated at 37° C. for an hour. In this case, each of the treated compounds was used at six concentrations, ranging from 0.0032 to 10 μM, to treat the cells.
The cyclic adenosine monophosphate (cAMP) activity was measured according to the manufacturer's instruction using a cAMP dynamic kit commercially available from Cis Bio Inc. (Bedford, Mass.). The cells were lysed, and a level of cAMP was determined by a competitive immunoassay using D2-labeled cAMP and a cryptate-labeled anti-cAMP antibody. Fluorescence was read in Flex Station (Molecular Devices). […] Unlabeled cAMP in the cell lysate competed with the D2-labeled cAMP against the cryptate-labeled antibody. Since a decrease in the measured intensity of the FRET signals represents a level of cAMP in the cells, the cAMP activities of the compounds are calculated as a change in FRET signals by adjusting an amount of dimethyl sulfoxide (DMSO).
`CCc1cnc(N2CCC(COc3ccc(C4=CCC(C(=O)N5CCC[C@@H]5CO)CC4)cc3)CC2)nc1` (single isomer, unassigned; (-)) [Example 291] was tested, and the EC50 was no more than 50 nM.
`CC(C)(C)OC(=O)N1CCC(COc2ccc(C3=CCC(C(=O)N4CCOCC4)CC3)cc2F)CC1` (single isomer, unassigned; (-)) [Example 443, (−)-tert-butyl 4-((2-fluoro-4-(4-(morpholine-4-carbonyl)cyclohex-1-enyl)phenoxy)methyl)piperidine-1-carboxylate] was tested, and the EC50 was no more than 50 nM.
For `CC(C)c1noc(N2CCC(COc3ccc(C4=CCC(C(=O)N5CCN(C6CC6)CC5)CC4)cc3F)CC2)n1` (stereo not drawn) [Example 369, (4-cyclopropylpiperazin-1-yl)(4-(3-fluoro-4-((1-(3-isopropyl-1,2,4-oxadiazol-5-yl)piperidin-4-yl)methoxy)phenyl)cyclohex-3-enyl)methanone], the EC50 was no more than 50 nM.
`CC(C)=CC(=O)N1CCC(COc2ccc(C3=CCC(C(=O)N4CCOCC4)CC3)cc2F)CC1` (stereo not drawn) [Example 451, 1-(4-((2-fluoro-4-(4-(morpholine-4-carbonyl)cyclohex-1-enyl)phenoxy)methyl)piperidin-1-yl)-3-methylbut-2-en-1-one] showed an EC50 of no more than 50 nM.
